In paper doi:10.1101/2025.09.30.679481 one finds binding data, which are given here for one substance.

Sequences of proteins named here, by UniProt entry; tags and fusion partners are left off.
UniProt P21187: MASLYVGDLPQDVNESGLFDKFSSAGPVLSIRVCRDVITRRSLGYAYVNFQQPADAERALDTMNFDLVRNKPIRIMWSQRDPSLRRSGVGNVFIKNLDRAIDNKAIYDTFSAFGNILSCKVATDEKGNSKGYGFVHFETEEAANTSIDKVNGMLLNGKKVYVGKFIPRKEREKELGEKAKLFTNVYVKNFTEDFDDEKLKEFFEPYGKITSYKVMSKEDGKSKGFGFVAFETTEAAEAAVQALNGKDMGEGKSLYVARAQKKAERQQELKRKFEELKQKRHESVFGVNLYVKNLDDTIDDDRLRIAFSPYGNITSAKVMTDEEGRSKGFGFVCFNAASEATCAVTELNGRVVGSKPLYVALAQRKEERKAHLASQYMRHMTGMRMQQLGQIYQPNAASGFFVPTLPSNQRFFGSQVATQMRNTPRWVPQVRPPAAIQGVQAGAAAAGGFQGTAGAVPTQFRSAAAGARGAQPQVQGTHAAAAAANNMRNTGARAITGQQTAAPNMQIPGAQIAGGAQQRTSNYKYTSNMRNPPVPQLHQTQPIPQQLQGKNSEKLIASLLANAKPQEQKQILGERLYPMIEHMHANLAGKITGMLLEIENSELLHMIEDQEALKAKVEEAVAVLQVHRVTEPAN

These are yes or no findings as the source states them, for the method shown. In cells and extracts the contact can be indirect. Some results given as binding are weak or reduced against the parent protein; the word gives no strength.

This assay concerns the target T1, Bicaudal-D (D. melanogaster (endogenous in embryos)) (UniProt P16568).
T1 sequence: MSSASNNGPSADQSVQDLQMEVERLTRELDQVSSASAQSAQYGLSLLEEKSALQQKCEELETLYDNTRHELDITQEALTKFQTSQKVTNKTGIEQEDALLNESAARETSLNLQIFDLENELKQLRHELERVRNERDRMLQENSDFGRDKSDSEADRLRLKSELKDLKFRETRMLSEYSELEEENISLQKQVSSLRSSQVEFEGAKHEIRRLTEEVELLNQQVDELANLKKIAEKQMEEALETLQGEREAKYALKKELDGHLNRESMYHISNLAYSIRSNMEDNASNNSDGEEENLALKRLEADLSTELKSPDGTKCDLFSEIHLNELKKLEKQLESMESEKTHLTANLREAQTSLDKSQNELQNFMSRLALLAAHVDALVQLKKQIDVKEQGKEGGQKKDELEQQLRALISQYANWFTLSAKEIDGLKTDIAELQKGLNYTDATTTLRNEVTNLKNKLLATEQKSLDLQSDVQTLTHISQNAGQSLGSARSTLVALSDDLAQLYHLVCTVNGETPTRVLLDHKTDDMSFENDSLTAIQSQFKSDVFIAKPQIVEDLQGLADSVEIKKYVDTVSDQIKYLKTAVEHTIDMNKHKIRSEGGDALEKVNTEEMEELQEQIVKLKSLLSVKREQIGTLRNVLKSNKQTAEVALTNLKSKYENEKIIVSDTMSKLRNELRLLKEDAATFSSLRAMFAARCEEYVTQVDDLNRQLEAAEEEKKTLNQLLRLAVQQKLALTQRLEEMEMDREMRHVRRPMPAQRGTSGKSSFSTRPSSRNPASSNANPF
Kind of assay: co-IP.

Turning to “poly-A binding protein (from UniProt P21187 1-634)”, the binding result is “binds”.
